From the supplement of paper PMC10849652
Some of the results follow.

Sequences of proteins named here, by UniProt entry; tags and fusion partners are left off. A change or cut given only in a name is not applied to a line headed by its entry.
UniProt Q9H5J4: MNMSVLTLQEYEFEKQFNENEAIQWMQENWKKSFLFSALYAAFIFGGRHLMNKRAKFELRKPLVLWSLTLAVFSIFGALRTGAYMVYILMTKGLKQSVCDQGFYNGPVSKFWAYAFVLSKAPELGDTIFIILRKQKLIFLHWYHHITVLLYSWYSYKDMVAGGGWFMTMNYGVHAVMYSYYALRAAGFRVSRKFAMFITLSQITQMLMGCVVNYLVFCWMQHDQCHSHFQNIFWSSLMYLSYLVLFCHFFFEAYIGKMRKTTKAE
UniProt O15371, whole entry, looked up: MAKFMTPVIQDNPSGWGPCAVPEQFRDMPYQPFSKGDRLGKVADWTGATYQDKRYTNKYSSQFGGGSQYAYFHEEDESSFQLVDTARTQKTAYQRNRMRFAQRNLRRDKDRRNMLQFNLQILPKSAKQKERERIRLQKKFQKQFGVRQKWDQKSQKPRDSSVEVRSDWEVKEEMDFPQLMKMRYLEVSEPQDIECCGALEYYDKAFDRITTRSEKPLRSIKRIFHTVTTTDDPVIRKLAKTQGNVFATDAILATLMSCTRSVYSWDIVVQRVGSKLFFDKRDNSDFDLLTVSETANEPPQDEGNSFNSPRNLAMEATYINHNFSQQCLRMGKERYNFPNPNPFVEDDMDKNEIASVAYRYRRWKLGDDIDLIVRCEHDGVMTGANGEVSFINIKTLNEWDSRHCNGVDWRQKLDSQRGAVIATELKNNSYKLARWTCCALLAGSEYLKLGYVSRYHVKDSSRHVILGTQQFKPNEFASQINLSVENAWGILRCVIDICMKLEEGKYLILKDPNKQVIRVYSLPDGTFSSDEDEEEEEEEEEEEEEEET
UniProt Q14240, whole entry, looked up: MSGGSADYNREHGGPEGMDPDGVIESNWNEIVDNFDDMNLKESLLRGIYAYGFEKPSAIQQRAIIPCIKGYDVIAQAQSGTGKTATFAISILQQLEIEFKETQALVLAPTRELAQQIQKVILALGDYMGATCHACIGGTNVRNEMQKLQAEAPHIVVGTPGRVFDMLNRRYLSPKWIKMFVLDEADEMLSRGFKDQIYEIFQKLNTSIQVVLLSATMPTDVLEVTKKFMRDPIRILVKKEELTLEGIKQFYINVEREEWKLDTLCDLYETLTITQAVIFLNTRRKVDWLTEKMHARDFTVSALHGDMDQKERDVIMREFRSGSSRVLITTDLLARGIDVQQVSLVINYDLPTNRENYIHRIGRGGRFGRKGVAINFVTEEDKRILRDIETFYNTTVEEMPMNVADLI
UniProt Q92979: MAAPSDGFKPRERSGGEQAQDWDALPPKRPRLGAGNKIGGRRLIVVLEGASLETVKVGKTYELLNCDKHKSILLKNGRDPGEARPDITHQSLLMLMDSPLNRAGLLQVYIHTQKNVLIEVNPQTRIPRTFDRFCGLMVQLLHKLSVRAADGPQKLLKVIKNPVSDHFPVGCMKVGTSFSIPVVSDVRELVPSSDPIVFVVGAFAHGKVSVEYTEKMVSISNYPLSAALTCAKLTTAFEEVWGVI
UniProt P41091, whole entry, looked up: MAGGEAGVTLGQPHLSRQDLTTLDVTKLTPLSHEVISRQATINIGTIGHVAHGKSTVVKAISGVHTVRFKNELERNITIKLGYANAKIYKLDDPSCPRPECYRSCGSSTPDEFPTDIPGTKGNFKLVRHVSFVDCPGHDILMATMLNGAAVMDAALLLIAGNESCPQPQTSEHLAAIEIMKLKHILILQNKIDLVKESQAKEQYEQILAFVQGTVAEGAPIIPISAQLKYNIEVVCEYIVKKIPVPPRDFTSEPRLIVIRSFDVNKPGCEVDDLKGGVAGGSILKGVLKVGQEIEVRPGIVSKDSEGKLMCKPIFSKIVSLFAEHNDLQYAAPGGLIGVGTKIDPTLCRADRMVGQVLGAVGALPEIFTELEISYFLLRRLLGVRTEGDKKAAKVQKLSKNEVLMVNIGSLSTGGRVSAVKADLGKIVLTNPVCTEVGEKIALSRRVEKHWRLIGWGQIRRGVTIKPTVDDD
UniProt P49770: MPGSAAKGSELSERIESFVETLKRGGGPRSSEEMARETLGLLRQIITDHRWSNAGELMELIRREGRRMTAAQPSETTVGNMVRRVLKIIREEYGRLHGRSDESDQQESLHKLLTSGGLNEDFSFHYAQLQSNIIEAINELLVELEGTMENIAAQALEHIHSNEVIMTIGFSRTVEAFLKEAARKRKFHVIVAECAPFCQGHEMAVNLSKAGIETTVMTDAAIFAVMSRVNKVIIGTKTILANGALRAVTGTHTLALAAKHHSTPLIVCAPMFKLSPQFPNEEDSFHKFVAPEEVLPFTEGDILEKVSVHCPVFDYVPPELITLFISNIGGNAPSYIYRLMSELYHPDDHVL
UniProt Q6ZTU2, whole entry, looked up: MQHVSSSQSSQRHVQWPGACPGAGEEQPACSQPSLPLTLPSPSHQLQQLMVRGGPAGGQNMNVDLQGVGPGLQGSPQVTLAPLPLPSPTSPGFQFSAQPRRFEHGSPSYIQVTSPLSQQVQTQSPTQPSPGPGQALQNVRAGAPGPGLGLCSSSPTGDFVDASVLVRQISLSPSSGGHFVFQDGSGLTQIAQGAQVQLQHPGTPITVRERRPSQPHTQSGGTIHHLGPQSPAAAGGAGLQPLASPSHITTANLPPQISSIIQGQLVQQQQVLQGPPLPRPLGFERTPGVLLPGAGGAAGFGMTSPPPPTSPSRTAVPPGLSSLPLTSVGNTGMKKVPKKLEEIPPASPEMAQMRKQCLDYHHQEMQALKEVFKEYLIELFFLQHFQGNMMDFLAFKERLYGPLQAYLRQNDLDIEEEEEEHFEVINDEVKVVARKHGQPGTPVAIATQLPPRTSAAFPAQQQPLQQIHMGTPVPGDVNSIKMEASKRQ
UniProt Q8IZ81: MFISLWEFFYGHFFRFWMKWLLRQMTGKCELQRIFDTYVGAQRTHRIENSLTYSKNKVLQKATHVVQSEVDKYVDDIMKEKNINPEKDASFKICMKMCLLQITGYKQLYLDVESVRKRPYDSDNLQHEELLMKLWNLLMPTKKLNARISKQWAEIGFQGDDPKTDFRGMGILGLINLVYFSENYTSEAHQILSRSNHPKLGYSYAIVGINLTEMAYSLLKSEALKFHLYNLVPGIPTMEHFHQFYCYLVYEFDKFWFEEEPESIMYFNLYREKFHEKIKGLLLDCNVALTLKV
UniProt P26378: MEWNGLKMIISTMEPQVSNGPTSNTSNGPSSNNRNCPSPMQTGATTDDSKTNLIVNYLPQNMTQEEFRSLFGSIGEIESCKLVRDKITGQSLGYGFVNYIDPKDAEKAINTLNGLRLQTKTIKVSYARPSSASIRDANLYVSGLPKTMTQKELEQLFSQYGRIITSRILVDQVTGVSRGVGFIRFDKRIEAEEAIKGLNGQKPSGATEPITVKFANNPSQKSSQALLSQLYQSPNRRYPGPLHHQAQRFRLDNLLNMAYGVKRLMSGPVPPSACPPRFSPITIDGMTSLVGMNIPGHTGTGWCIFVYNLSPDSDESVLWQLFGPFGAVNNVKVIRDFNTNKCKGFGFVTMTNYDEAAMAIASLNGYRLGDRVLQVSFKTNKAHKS
UniProt Q8NFI3: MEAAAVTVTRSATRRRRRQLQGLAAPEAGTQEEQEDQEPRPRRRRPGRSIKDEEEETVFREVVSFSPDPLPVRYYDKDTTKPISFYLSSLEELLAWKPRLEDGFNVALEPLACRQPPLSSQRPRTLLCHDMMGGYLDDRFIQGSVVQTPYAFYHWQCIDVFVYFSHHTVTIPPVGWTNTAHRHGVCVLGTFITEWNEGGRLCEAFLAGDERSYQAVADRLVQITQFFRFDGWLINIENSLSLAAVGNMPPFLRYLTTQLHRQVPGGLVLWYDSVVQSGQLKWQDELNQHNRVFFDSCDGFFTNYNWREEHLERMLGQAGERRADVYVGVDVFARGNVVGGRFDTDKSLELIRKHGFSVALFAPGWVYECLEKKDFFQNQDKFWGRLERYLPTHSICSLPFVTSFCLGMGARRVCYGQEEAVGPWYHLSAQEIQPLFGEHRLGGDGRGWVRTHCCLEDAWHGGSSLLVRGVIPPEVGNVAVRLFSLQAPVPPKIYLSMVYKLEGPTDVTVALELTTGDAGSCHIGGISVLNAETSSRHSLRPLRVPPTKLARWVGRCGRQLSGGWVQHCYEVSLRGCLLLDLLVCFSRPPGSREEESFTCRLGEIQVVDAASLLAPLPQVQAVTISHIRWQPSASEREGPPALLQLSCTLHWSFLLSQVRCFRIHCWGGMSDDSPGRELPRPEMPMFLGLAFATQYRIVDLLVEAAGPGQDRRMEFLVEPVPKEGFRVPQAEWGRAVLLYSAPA
UniProt Q15717, whole entry, looked up: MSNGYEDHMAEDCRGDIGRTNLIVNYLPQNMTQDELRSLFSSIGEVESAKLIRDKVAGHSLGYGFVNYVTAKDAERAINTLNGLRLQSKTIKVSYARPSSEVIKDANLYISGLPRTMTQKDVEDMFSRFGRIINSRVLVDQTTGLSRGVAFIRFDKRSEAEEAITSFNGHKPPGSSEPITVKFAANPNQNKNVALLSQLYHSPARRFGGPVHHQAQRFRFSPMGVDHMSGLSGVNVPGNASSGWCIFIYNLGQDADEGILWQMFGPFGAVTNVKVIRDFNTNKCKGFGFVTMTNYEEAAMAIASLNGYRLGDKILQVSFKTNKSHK
UniProt Q9UI10, whole entry, looked up: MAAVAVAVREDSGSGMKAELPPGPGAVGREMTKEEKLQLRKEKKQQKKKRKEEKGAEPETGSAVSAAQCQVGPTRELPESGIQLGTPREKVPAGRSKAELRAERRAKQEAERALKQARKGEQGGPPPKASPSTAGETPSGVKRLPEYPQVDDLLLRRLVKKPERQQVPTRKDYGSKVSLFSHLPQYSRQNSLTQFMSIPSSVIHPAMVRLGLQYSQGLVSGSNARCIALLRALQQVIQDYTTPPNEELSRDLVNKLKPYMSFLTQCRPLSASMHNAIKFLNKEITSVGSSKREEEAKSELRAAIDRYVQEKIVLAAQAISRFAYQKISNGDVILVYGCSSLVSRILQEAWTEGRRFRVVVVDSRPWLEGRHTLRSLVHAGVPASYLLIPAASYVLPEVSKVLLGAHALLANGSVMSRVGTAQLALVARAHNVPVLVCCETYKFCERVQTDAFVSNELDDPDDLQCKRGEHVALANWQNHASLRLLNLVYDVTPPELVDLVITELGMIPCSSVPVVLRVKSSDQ
UniProt Q5NDL2: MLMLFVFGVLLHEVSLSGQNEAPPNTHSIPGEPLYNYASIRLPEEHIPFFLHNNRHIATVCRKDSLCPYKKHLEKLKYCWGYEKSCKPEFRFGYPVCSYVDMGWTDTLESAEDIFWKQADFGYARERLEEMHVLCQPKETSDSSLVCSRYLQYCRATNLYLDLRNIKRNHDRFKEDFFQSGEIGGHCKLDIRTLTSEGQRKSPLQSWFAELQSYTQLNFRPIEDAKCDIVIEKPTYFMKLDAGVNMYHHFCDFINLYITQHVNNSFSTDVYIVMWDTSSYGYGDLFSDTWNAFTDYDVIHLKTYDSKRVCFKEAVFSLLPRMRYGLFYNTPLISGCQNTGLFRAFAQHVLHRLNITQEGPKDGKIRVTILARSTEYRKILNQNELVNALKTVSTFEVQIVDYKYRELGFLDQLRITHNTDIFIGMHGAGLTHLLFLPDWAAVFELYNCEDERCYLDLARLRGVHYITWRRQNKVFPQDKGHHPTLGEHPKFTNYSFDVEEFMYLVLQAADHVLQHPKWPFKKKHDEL
UniProt Q15369, whole entry, looked up: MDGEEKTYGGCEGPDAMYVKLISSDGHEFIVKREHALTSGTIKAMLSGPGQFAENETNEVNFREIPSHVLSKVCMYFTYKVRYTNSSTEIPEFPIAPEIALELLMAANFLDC
UniProt P41214: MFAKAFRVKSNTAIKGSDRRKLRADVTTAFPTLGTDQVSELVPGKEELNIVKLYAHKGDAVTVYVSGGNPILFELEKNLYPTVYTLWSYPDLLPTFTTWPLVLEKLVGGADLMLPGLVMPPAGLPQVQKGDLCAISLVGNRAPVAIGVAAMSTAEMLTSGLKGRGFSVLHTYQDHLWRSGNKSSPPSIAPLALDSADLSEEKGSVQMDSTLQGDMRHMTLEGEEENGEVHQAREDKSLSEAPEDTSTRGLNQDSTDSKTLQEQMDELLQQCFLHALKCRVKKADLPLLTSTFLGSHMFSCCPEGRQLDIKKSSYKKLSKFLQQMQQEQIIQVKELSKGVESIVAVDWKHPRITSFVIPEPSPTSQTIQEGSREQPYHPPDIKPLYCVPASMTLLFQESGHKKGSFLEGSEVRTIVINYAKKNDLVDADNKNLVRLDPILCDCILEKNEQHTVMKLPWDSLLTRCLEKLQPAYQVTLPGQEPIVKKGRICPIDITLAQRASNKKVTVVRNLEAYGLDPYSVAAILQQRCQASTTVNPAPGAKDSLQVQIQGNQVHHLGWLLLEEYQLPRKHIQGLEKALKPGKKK

These targets were tested with Cn1cc(CNCC2CCN(c3ncc(C(=O)NO)cn3)CC2)c2ccccc21 [quisinostat] (assay: log2 fold change, soluble protein after heating vs DMSO (PISA); higher = thermal stabilisation; K562 lysate, 10 uM; active = over 0.2 and 3.5 SD of the protein, either way, in both replicates (recomputed)).
Summary of the method: (§1)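 Dounce homogenisation of K562 pellets in PBS pH 7.4 with 1 mM MgCl2 produced a crude extract, used at 1 mg/mL protein. Exposure to 10 μM compound lasted 30 min, and aliquots were then heated for 3 min across 48°C-58°C, pooled and brought to 0.5% NP-40 at 4°C. The supernatant after 21,000xg for 90 min was quantified by TMTpro 16plex LC-MS/MS with channel sums equalised. Duplicate values are given as log-two fold change in thermal stability relative to solvent controls.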

Row | Target | log2 fold change
1 | ELOVL6 (UniProt Q9H5J4) | inactive: 0.093
2 | EMC8 (UniProt O43402) | inactive: 0.03
3 | ERCC3 (UniProt P19447) | inactive: -0.067
4 | EIF3D (UniProt O15371) | inactive: 0.033
5 | ERAL1 (UniProt O75616) | inactive: -0.078
6 | EIF4A2 isoform 2 (UniProt Q14240) | inactive: 0.031
7 | ERC1 (UniProt X6RLX0) | inactive: -0.004
8 | EMG1 (UniProt Q92979) | inactive: -0.025
9 | ENPP3 (UniProt O14638) | inactive: -0.051
10 | EIF2S3 (UniProt P41091) | inactive: 0.017
11 | EIF2B2 (UniProt P49770) | inactive: 0.003
12 | ELMO2 (UniProt Q96JJ3) | inactive: -0.425
13 | EPB41 (UniProt P11171) | inactive: 0.039
14 | EIF2AK4 (UniProt Q9P2K8) | inactive: -0.074
15 | EP400P1 isoform 6 (UniProt Q6ZTU2) | inactive: -0.03
16 | ELMOD2 (UniProt Q8IZ81) | inactive: 0.022
17 | ELAVL4 (UniProt P26378) | inactive: -0.07
18 | ENGASE (UniProt Q8NFI3) | inactive: 0.009

Row | Target | log2 fold change
19 | EPM2AIP1 (UniProt Q7L775) | inactive: 0.012
20 | ELF1 (UniProt P32519) | inactive: -0.01
21 | EIF4E2 (UniProt O60573) | inactive: 0.134
22 | EIF5A isoform 2 (UniProt P63241) | inactive: 0.048
23 | EIF4EBP2 (UniProt Q13542) | inactive: 0.164
24 | ELMO1 (UniProt Q92556) | inactive: -0.134
25 | ENO2 (UniProt P09104) | inactive: -0.03
26 | ELAVL1 isoform 2 (UniProt Q15717) | inactive: -0.079
27 | EMD (UniProt P50402) | inactive: -0.031
28 | ERCC4 (UniProt Q92889) | inactive: -0.105
29 | EIF2B4 isoform 2 (UniProt Q9UI10) | inactive: 0
30 | EOGT (UniProt Q5NDL2) | inactive: 0.066
31 | ELP2 isoform 6 (UniProt Q6IA86) | inactive: -0.032
32 | EIF4H (UniProt Q15056) | inactive: 0.007
33 | EPB41L3 (UniProt Q9Y2J2) | inactive: 0.136
34 | ELOC (UniProt Q15369) | inactive: 0.034
35 | EIF2D (UniProt P41214) | inactive: -0.064

What follows are targets tested with Cn1cncc1[C@@](N)(c1ccc(Cl)cc1)c1ccc2c(c1)c(-c1cccc(Cl)c1)cc(=O)n2C [tipifarnib] in the same assay as above.
Summary of the method: as §1

Row | Target | log2 fold change
36 | ELOVL6 (UniProt Q9H5J4) | inactive: -0.103
37 | EMC8 (UniProt O43402) | inactive: -0.013
38 | ERCC3 (UniProt P19447) | inactive: 0.043
39 | EIF3D (UniProt O15371) | inactive: 0.01
40 | ERAL1 (UniProt O75616) | inactive: -0.027
41 | EIF4A2 isoform 2 (UniProt Q14240) | inactive: 0.023
42 | ERC1 (UniProt X6RLX0) | inactive: 0.034
43 | EMG1 (UniProt Q92979) | inactive: 0.058
44 | ENPP3 (UniProt O14638) | inactive: 0.026
45 | EIF2S3 (UniProt P41091) | inactive: 0.061
46 | EIF2B2 (UniProt P49770) | inactive: -0.025
47 | ELMO2 (UniProt Q96JJ3) | inactive: -0.077
48 | EPB41 (UniProt P11171) | inactive: 0.011
49 | EIF2AK4 (UniProt Q9P2K8) | inactive: -0.007
50 | EP400P1 isoform 6 (UniProt Q6ZTU2) | inactive: 0.021
51 | ELMOD2 (UniProt Q8IZ81) | inactive: -0.006
52 | ELAVL4 (UniProt P26378) | inactive: -0.06
53 | ENGASE (UniProt Q8NFI3) | inactive: 0.043

Row | Target | log2 fold change
54 | EPM2AIP1 (UniProt Q7L775) | inactive: -0.028
55 | ELF1 (UniProt P32519) | inactive: -0.012
56 | EIF4E2 (UniProt O60573) | inactive: -0.066
57 | EIF5A isoform 2 (UniProt P63241) | inactive: 0.014
58 | EIF4EBP2 (UniProt Q13542) | inactive: -0.065
59 | ELMO1 (UniProt Q92556) | inactive: -0.295
60 | ENO2 (UniProt P09104) | inactive: -0.021
61 | ELAVL1 isoform 2 (UniProt Q15717) | inactive: 0.003
62 | EMD (UniProt P50402) | inactive: 0.073
63 | ERCC4 (UniProt Q92889) | inactive: -0.007
64 | EIF2B4 isoform 2 (UniProt Q9UI10) | inactive: 0.037
65 | EOGT (UniProt Q5NDL2) | inactive: 0.022
66 | ELP2 isoform 6 (UniProt Q6IA86) | inactive: -0.017
67 | EIF4H (UniProt Q15056) | inactive: 0.044
68 | EPB41L3 (UniProt Q9Y2J2) | inactive: -0.015
69 | ELOC (UniProt Q15369) | inactive: 0.08
70 | EIF2D (UniProt P41214) | inactive: 0.024
